PubChem BioAssay AID1117319 (Southern Research Institute, 2015)
Screen size: about 260,000 compounds; about 1,500 (0.58%) were called active. This list was built around the results that the source calls inconclusive (neither active nor inactive); the mix of calls is not that of the screen.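 The calls were made as follows: active = inhibition above a set limit at one or more doses, reproduced on every date tested; inconclusive = results disagree between test dates, or hit never tested in dose response; inactive = the rest.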

Amino acid sequences for entries named in this document (tags omitted). A change or cut given only in a name is not applied to a line headed by its entry.
UniProt P69720: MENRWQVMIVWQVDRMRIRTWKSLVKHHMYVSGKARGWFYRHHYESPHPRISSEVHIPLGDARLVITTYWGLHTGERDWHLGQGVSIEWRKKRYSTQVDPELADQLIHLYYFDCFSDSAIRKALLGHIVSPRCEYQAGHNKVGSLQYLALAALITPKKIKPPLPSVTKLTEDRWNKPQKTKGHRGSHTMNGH
UniProt P69721: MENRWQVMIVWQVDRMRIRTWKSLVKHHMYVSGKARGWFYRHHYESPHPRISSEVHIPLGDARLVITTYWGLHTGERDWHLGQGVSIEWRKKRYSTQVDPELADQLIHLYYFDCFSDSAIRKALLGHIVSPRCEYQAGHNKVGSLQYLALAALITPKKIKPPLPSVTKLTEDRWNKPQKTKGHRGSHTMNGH
UniProt P69722: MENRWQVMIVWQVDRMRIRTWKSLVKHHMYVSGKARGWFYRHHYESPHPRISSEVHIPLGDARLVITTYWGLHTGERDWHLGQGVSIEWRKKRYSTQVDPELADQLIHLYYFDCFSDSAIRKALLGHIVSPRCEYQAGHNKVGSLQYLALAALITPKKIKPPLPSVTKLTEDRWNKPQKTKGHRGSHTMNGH
UniProt P69723: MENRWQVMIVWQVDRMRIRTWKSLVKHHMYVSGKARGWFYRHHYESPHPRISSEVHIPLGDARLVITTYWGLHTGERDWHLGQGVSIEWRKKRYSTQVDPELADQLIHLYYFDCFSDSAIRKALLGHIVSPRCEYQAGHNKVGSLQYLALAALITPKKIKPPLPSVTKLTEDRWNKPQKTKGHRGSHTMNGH
UniProt Q9HC16: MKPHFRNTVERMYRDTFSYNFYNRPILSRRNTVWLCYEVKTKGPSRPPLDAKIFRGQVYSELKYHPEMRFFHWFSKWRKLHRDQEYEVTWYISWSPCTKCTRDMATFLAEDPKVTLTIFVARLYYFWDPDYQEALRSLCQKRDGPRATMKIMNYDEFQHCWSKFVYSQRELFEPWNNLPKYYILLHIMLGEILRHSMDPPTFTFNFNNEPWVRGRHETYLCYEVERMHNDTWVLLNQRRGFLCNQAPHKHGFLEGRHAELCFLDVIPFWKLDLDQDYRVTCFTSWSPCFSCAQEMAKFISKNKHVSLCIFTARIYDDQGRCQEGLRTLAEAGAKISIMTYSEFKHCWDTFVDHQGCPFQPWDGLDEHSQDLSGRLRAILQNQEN

These molecules were tested against Virion infectivity factor (Human immunodeficiency virus type 1 group M subtype B (isolate BH10)) + Virion infectivity factor (Human immunodeficiency virus type 1 group M subtype B (isolate BRU/LAI)) + Virion infectivity factor (Human immunodeficiency virus type 1 group M subtype B (isolate PCV12)) + Virion infectivity factor (Human immunodeficiency virus type 1 group M subtype B (isolate HXB2)) + DNA dC->dU-editing enzyme APOBEC-3G (Homo sapiens) (UniProt P69720+P69721+P69722+P69723+Q9HC16) (assay: inhibitors of Vif binding to APOBEC3G peptide, primary screen, biochemical, TR-FRET, GST-Vif 1-94, biotin-A3G peptide, dose response retest (AID 1117319;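 also: Vif residues 1-94 fused to GST binding biotinylated APOBEC3G peptide 110-148; 0% = full assay without inhibitor and 100% = GST in place of GST-Vif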)). Conditions: active compounds read high.
In the case of `Cc1cc(C(=O)Nc2nc3c(C)cccc3s2)c(C)o1`, the inhibition is reported as inactive: 17.4%. In the case of `Cc1cccc(C(=O)Nc2nnc(S(=O)(=O)N(C)Cc3ccco3)s2)c1`, the inhibition is reported as inconclusive: 38.5%. With `Cc1[nH]c(=O)[nH]c(=O)c1S(=O)(=O)N1CCCC1` the inhibition was inconclusive: 26.1%. `Cc1ccc(C)c2nc(SCC(=O)Nc3ccc4c(c3)OCO4)c(C#N)cc12` was tested, and the inhibition was inconclusive: 44.5%. `CC(=O)Nc1ccccc1/C=C/c1ccc2c(C)ccc(O)c2n1` was tested, and the inhibition was inconclusive: 36.2%. With `CCOC(=O)c1c2c(c(=S)n(-c3ccccc3)c1N)CCC2` the inhibition was inconclusive: 33.1%. `COC(Cc1n[nH]c(=S)n1-c1ccc(Cl)cc1)OC` was tested, and the inhibition was inactive: -7.57%. `C=CCn1c(SCC(=O)NC(=O)NC2CCCC2)nnc1C1CCCCC1` was tested, and the inhibition was inconclusive: 34.3%. For `O=C(Cn1ncc2c1-c1ccccc1OC2)Nc1ccc(Cl)cn1`, the inhibition was inconclusive: 34.6%. `COc1cc(-c2[nH]ncc2CN2CCN(c3cccc(C)n3)CC2)cc(OC)c1OC` was tested, and the inhibition was inconclusive: 40.1%. For `O=C(O)/C=C/c1ccccc1Oc1ccccc1`, the inhibition was inactive: -6.82%. In the case of `O=C1/C(=C/c2ccccc2)SC(=S)N1C1CCS(=O)(=O)C1` (stereo not given), the inhibition is reported as inactive: -6.69%. In the case of `COc1ccc(CCn2c(-c3ccccc3)nc3c(c(=O)c4ccccc4n3C)c2=O)cc1`, the inhibition is reported as inconclusive: 54.1%. With `O=C(CCN1C(=O)C2C3C=CC(C3)C2C1=O)N1CCN(c2ccccn2)CC1` (stereo not given) the inhibition was inconclusive: 37.3%. For `O=C(Nc1ccc(F)cc1)C(=O)c1c(O)[nH]c2ccc([N+](=O)[O-])cc12`, the inhibition was inconclusive: 36.4%. `O=C(N/N=C/c1ccco1)c1ccccc1OCc1ccc(Br)cc1` was tested, and the inhibition was inconclusive: 61.4%. For `Cc1cc(C)nc(N/N=C/C(Cl)=C/c2ccccc2)n1`, the inhibition was inconclusive: 56%. With `O=C(NCc1ccco1)C(=O)N1CCCC1` the inhibition was inconclusive: 43.2%. `COc1ccc(OC)c(C2CC(=O)N3CN(c4ccc(C)c(Cl)c4)CSC3=C2C#N)c1` (stereo not given) was tested, and the inhibition was inactive: 6.54%. In the case of `O=C(Nc1ccccc1)N1CCN(Cc2ccc3c(c2)OCO3)CC1`, the inhibition is reported as inconclusive: 41.6%. In the case of `CCN(CC)C(=S)SCC(=O)Nc1ccc(S(N)(=O)=O)cc1`, the inhibition is reported as inconclusive: 47.6%. For `Cc1cc(C)c(C#N)c(Oc2ccc(F)cc2)n1`, the inhibition was inactive: 18.6%. For `O=C(NC(C(=O)N/N=C/c1cccc2ccccc12)c1n[nH]c(=O)c2ccccc12)c1ccccc1` (stereo not given), the inhibition was inactive: 4.11%. In the case of `CSCCC1(C(=O)O)NC(c2ccccc2O)C2C(=O)N(C(C)C)C(=O)C21` (stereo not given), the inhibition is reported as inconclusive: 63%. For `COCCCNC(=O)c1ccc2c(=O)n(Cc3ccc(OC)cc3)c(=O)[nH]c2c1`, the inhibition was inconclusive: 52.5%.
